# Source: PubChem BioAssay AID540276 (National Center for Advancing Translational Sciences (NCATS), 2011)
# “And” between values parts separate entries of the source, which are not always exact repeats. Equal values may be shown once. About 5,400 (1.8%) of roughly 300,000 compounds were called active. The shares of active, inactive and inconclusive entries below differ from those in the screen. Calls come from the whole dose curve; tested in HEK293 cells. Where the call is inconclusive, the potency comes from a doubtful curve fit.
# Experiment: qHTS for inhibitors of binding or entry into cells for Marburg Virus
# Conditions: Marburg virus pseudotyped entry inhibition, cell reporter; activity change, negative = inhibition: at 37.8 µM (top of the series) unless noted
# % is set by controls: 0 for no effect and ±100 for the full control effect; potency is the fitted concentration of half-maximal effect.
SMILES,"activity change, negative = inhibition",Potency
CCOc1ccc(NC(=O)CN(C)C(=O)c2cccnc2Sc2ccccc2Cl)cc1OCC,inactive: 0%,–
O=C(Nc1ccc([N+](=O)[O-])cn1)c1cccnc1,inactive: 4.72%,–
Cn1nnnc1SCSc1nnnn1C,inactive: -6.49%,–
CCOC(=O)c1[nH]c(C)c(CCC(=O)O)c1C,–,"inconclusive: 0.112 µM [inhibitor, full curve, poor fit]"
COc1ccc2[nH]c(C)c(C(=O)CN3CC(C)OC(C)C3)c2c1 (configuration not stated),inactive: -1.33%,–
CCCCNc1nc2c(c(=O)n(C)c(=O)n2C)n1Cc1cccc(OC)c1,–,"inconclusive: 8.2 µM [inhibitor, partial curve, poor fit]"
COc1ccc(NC(=O)CN(C)C(=O)CSCc2ccc(C)cc2)cc1,inactive: 3.06%,–
Cc1cc2oc(=O)cc(CN3CCCCC3)c2cc1C(C)C,–,"inconclusive: 10 µM [inhibitor, partial curve, poor fit]"
Cc1cc(C)nc(Nc2cc([N+](=O)[O-])ccc2C)n1,inactive: -0.158% [at 46.1 µM],–
O=C(C[n+]1ccccc1)Nc1ccccc1[N+](=O)[O-],inactive: 9.4% [at 46.1 µM],–
O=C(Nc1ccc(N2CCCC2)c(Cl)c1)c1ccco1,–,"inconclusive: 20.6 µM [inhibitor, single point]"
COc1cccc(C(=O)Nc2cc(OC)ccc2NC(=O)c2ccco2)c1,inactive: 11.8%,–
Cc1ccc(Nc2ccc(C(=O)N3CCCC3)cn2)c(C)c1,inactive: 18%,–
Fc1ccccc1OCCCCCN1CCCC1,–,"inconclusive: 5.17 µM [activator, partial curve, poor fit]"
O=C(CCC1CCCC1)N1CCN(C(=O)COc2ccccc2)CC1,–,"inconclusive: 5.62 µM [inhibitor, single point]"
COc1ccc2oc3ccc(OC)cc3c(=O)c2c1,–,"inconclusive: 0.517 µM [activator, partial curve]"
O=C(CSC1c2ccccc2-c2ccccc21)N/N=C/c1ccccc1C(=O)O,inactive: -1.37% [at 46.1 µM],–
O=C(NN=C1CCCC1)c1[nH]c2ccc(Br)cc2c1-c1ccccc1,–,active: 8.91 µM
O=C(N/N=C/c1[nH]c2ccccc2c1Cl)c1cccc(Br)c1,–,"inconclusive: 11.2 µM [inhibitor, partial curve, poor fit]"
Oc1ccccc1/C=N/n1c(-c2ccccc2)n[nH]c1=S,–,"inconclusive: 1.26 µM [activator, single point]"
O=C(NC(C(=O)c1ccccc1)N1CCOCC1)c1cccs1 (configuration not stated),inactive: 14.7%,–
Cc1[nH]nc(-c2ccc(OCc3cnn(-c4ccccc4)c3)c(C)c2O)c1Oc1ccccc1,inactive: -31.3%,–
C=CCNc1nc(-c2c(C)nc3sccn23)cs1,inactive: -28%,–
CCC(C)c1ccc(OCC(=O)Nc2ccc3[nH]c(=O)[nH]c3c2)cc1 (configuration not stated),–,"inconclusive: 32.6 µM [inhibitor, single point]"

SMILES,"activity change, negative = inhibition",Potency
O=C(c1cccs1)N1CCN=C1SCc1ccc(Cl)cc1,–,"inconclusive: 6.31 µM [activator, full curve, poor fit]"
O=C(NCCc1ccc(Cl)cc1)c1ccc2c(c1)N(Cc1ccccc1)CCS2,inactive: 10.6% [at 46.1 µM],–
CC(=O)c1nc2ccccc2n1S(=O)(=O)c1ccc(Cl)cc1,–,"inconclusive: 18.3 µM [activator, single point]"
Cc1ccccc1Cn1c(C)c(CNCc2ccccc2)c(C(=O)O)c1C,inactive: 2.51% [at 46.1 µM],–
Cc1ccc(C(=O)Nc2ccc(-c3csc(C)n3)cc2)cc1,inactive: -16.2%,–
O=C(NCc1ccc(-c2csnn2)cc1)c1cc(Cl)cc(Cl)c1,–,"inconclusive: 1 µM [inhibitor, full curve, poor fit]"
CC(C)Oc1ccc(CNC(=O)c2ccc3nc(SCc4ccc(F)cc4)n(C)c3c2)cc1,–,"inconclusive: 1.78 µM [inhibitor, single point]"
O=C(CCS(=O)(=O)c1ccc(Br)cc1)N1CCN(c2ccccc2F)CC1,–,"inconclusive: 20 µM [inhibitor, single point]"
Cc1onc(-c2ccccc2)c1C(=O)Nc1ccc(-c2nnc3n2CCCCC3)cc1,–,"inconclusive: 28.2 µM [inhibitor, single point]"
CC1CCCCC1NC(=O)c1ccc(S(=O)(=O)NCc2ccco2)cc1 (configuration not stated),inactive: -10.6%,–
Cc1cccc(Nc2nc(N3CCOCC3)nc(N3CCOCC3)n2)c1,–,"inconclusive: 1.26 µM [inhibitor, full curve, poor fit]"
O=C(NCc1nnnn1-c1ccc(F)c(F)c1)c1ccc2c(c1)OCO2,–,"inconclusive: 0.891 µM [activator, partial curve, poor fit]"
COc1ccc(-c2csc3ncnc(Oc4cccc5ccc(C)nc45)c23)cc1,–,"inconclusive: 0.708 µM [inhibitor, full curve, poor fit]"
C[C@]12CC[C@@H]3c4ccc(O)cc4CC[C@H]3[C@@H]1C[C@@H](O)[C@@H]2O,inactive: -0.97%,–
COc1ccc(-c2nn3c(-c4cccc(C)c4)nnc3s2)cc1OC,–,"inconclusive: 25.9 µM [inhibitor, single point]"
O=C(NCc1ccco1)c1cc(-c2ccc3c(c2)OCO3)on1,–,"inconclusive: 29.1 µM [inhibitor, single point]"
O=c1c2ccccc2nc(SCc2cccc(F)c2)n1C1CCCC1,–,"inconclusive: 22.4 µM [inhibitor, single point]"
O=C(CCCCn1c(=O)c2ccccc2n(Cc2ccc(F)cc2Cl)c1=O)NCc1ccco1,–,"inconclusive: 28.2 µM [inhibitor, partial curve, poor fit]"
CCOC1(OCC)C(c2ccc(N)cc2)C(C#N)(C#N)C1(OCC)OCC (configuration not stated),–,"inconclusive: 29.1 µM [inhibitor, single point]"
Cc1ccc(N(C(C)C(=O)N2CCC(C)CC2)S(C)(=O)=O)cc1C (configuration not stated),–,"inconclusive: 29.1 µM [activator, single point]"
Cc1sc2ncn(CC(=O)NCCCC(=O)N3CCC(C)CC3)c(=O)c2c1C,–,"inconclusive: 12.6 µM [inhibitor, single point]"
CCOC(=O)c1sc2nc(C)nc(N3CCN(S(=O)(=O)c4ccccc4)CC3)c2c1C,–,"inconclusive: 10 µM [inhibitor, partial curve, poor fit]"
Cc1sc(N)c(C(=O)c2ccccc2Cl)c1C,–,"inconclusive: 8.91 µM [inhibitor, partial curve, poor fit]"
CC1(OC(=O)C2CCCC2)C(=O)C=C2C=C(c3ccsc3)N(C3CC3)C=C2C1=O (configuration not stated),–,"inconclusive: 0.0119 µM [activator, full curve, poor fit]"

SMILES,"activity change, negative = inhibition",Potency
CCc1ccc(-n2c(=O)c3c4c(sc3n(CC(=O)NCCCOC)c2=O)CCC4)cc1,inactive: 12.1% [at 46.1 µM],–
Cc1ccccc1-n1nnnc1SCC(=O)Nc1ccc(S(=O)(=O)N2CCCC2)cc1,–,"inconclusive: 22.4 µM [inhibitor, single point]"
CN(C)CCCO[C@@H]1[C@H]2OC(C)(C)O[C@H]2O[C@@H]1[C@H](O)CO,inactive: 4.65%,–
O=C(NC1CC2CCCC(C1)N2C(=O)Nc1ccc(Cl)c(C(F)(F)F)c1)C1CC1 (configuration not stated),inactive: -5.37%,–
C/C(=N\Nc1nc2c(s1)CCCC2)c1ccccc1,–,"inconclusive: 29.1 µM [inhibitor, single point]"
CN(C)N1C(=O)c2c(Cl)c(Cl)c(Cl)c(Cl)c2C1=O,–,"inconclusive: 5.62 µM [inhibitor, single point]"
CCc1ccccc1NC(=O)C1CCN(c2nn3c(=O)cc(C)nc3s2)CC1,inactive: -8.98% [at 46.1 µM],–
O=S(=O)(NC1CCN(Cc2ccccc2)CC1)c1cccc(S(=O)(=O)N2CCOCC2)c1,–,"inconclusive: 10 µM [inhibitor, partial curve, poor fit]"
CCOc1ccc(-n2c(=O)[nH]cc(C(=O)N3CCc4ccccc43)c2=O)cc1,inactive: 4.29% [at 46.1 µM],–
CC1CCC(C(=O)C2C(=O)C3=C(CCCC3)C2=O)CC1 (configuration not stated),inactive: -14.8%,–
O=C(c1cc(-c2cccc(Cl)c2)on1)N1CCOCC1,–,"inconclusive: 28.2 µM [inhibitor, partial curve, poor fit]"
CCOC(=O)c1c(C)[nH]c(N=Nc2cccc(OC)c2)c1C,–,"inconclusive: 31.6 µM [inhibitor, single point]"
Cc1cc(-n2c(=O)c(C#N)cc3c(=O)n4ccccc4nc32)no1,inactive: -12%,–
CC(=O)Nc1ccc(Nc2ccc([N+](=O)[O-])cn2)cc1,–,"inconclusive: 4.47 µM [inhibitor, partial curve, poor fit]"
CCCn1c(N2CCN(CC(=O)c3c(C)n(C)c4ccc(OC)cc34)CC2)nc2c1c(=O)[nH]c(=O)n2C,–,"inactive and inconclusive: 35.5 µM [inhibitor, single point]"
Cn1cnc2cc(NC(=O)c3ccco3)ccc21,inactive: -2.32%,–
Cc1ccc(S(=O)(=O)NC(C)(C)CSc2ccccn2)cc1,inactive: -2.15%,–
CCC1CCc2sc(C(=O)NNC(=O)c3ccncc3)cc2C1 (configuration not stated),inactive: 10.1%,–
N#C/C(=C\c1ccc(-c2ccc(C(=O)O)cc2)o1)C(=O)NCC1CCCO1 (configuration not stated),–,"inconclusive: 10 µM [activator, partial curve, poor fit]"
Cc1ccn2c(Nc3ccc4c(c3)OCO4)c(-c3ccc(O)cc3)nc2c1,–,inactive
Cc1cc(C)cc(Nc2ncc3c(n2)CC(c2ccco2)CC3=O)c1 (configuration not stated),inactive: -20.9%,–
Cc1cc(C)c2c(CN3CCC(C)CC3)cc(=O)oc2c1,–,"inconclusive: 3.16 µM [activator, partial curve, poor fit]"
COc1ccc(OC)c(CNc2nc3ccccc3n2CCN2CCCCC2)c1,–,"inconclusive: 23.1 µM [inhibitor, partial curve, poor fit]"
COc1ccc2nc(NC(=O)CC3Oc4ccccc4NC3=O)sc2c1 (configuration not stated),–,"inconclusive: 10.3 µM [inhibitor, partial curve, poor fit]"

# Entries from the list above that contain a thiophene ring, fused or not:
SMILES,"activity change, negative = inhibition",Potency
O=C(NC(C(=O)c1ccccc1)N1CCOCC1)c1cccs1 (configuration not stated),inactive: 14.7%,–
O=C(c1cccs1)N1CCN=C1SCc1ccc(Cl)cc1,–,"inconclusive: 6.31 µM [activator, full curve, poor fit]"
COc1ccc(-c2csc3ncnc(Oc4cccc5ccc(C)nc45)c23)cc1,–,"inconclusive: 0.708 µM [inhibitor, full curve, poor fit]"
Cc1sc2ncn(CC(=O)NCCCC(=O)N3CCC(C)CC3)c(=O)c2c1C,–,"inconclusive: 12.6 µM [inhibitor, single point]"
CCOC(=O)c1sc2nc(C)nc(N3CCN(S(=O)(=O)c4ccccc4)CC3)c2c1C,–,"inconclusive: 10 µM [inhibitor, partial curve, poor fit]"
Cc1sc(N)c(C(=O)c2ccccc2Cl)c1C,–,"inconclusive: 8.91 µM [inhibitor, partial curve, poor fit]"
CC1(OC(=O)C2CCCC2)C(=O)C=C2C=C(c3ccsc3)N(C3CC3)C=C2C1=O (configuration not stated),–,"inconclusive: 0.0119 µM [activator, full curve, poor fit]"
CCc1ccc(-n2c(=O)c3c4c(sc3n(CC(=O)NCCCOC)c2=O)CCC4)cc1,inactive: 12.1% [at 46.1 µM],–
CCC1CCc2sc(C(=O)NNC(=O)c3ccncc3)cc2C1 (configuration not stated),inactive: 10.1%,–

# Sorted by number of heavy atoms (smallest number first): some entries from above.
SMILES,"activity change, negative = inhibition",Potency
Cc1ccc(S(=O)(=O)NC(C)(C)CSc2ccccn2)cc1,inactive: -2.15%,–
Cc1cc(C)cc(Nc2ncc3c(n2)CC(c2ccco2)CC3=O)c1 (configuration not stated),inactive: -20.9%,–
O=C(NC1CC2CCCC(C1)N2C(=O)Nc1ccc(Cl)c(C(F)(F)F)c1)C1CC1 (configuration not stated),inactive: -5.37%,–
